Results are given in words; binding and its absence hold for the method and conditions named. In cells and extracts the contact can be indirect. These calls come from enrichment with a bait or labelling near it, and not all partners need be listed.
Biological target: Integrin alpha 2 (human (endogenous in PANC-1 and AsPC-1)) (UniProt P17301)
Assay: affinity purification with mass spectrometry; immunoprecipitation followed by LC-MS/MS (Q Exactive Plus, MaxQuant, FDR 1%); TFCP2 peptides detected with ITGA2; the methods paragraph names Flag-PTEN in 293T cells, not ITGA2

Amino acid sequences for entries named in this document (tags omitted). Residues count along the entry.
UniProt P17301, residues 30-1181: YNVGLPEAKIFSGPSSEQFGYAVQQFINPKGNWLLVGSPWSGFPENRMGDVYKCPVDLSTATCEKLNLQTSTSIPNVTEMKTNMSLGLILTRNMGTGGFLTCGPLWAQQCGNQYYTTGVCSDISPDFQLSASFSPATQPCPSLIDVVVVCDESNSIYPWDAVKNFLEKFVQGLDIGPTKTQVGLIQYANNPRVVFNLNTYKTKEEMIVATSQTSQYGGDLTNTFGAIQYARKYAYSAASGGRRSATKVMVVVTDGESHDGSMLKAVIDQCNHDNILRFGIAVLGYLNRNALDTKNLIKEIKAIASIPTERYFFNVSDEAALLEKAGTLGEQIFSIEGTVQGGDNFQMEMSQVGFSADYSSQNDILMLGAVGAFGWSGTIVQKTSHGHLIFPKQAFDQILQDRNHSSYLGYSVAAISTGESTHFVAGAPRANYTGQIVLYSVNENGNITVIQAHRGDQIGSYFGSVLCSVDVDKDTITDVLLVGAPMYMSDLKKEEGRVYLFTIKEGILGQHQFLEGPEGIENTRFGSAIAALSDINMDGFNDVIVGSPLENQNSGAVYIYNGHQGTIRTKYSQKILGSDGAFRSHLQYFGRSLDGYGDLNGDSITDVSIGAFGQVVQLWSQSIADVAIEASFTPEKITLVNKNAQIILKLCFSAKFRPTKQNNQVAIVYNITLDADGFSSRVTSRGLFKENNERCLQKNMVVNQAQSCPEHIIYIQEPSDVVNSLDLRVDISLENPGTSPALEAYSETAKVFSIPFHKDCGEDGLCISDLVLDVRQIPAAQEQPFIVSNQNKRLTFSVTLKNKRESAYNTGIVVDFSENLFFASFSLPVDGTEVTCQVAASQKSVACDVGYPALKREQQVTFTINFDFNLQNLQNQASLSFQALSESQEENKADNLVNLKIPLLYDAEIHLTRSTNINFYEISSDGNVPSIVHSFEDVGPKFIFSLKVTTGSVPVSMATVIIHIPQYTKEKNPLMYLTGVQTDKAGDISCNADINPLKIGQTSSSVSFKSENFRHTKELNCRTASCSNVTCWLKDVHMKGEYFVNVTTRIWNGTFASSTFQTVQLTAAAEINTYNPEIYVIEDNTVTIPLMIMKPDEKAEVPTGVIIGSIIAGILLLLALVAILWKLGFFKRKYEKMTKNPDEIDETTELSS

binding: binds
B1: Transcription factor CP2 (protein, UniProt Q12800 1-502)
chain: MAWALKLPLADEVIESGLVQDFDASLSGIGQELGAGAYSMSDVLALPIFKQEESSLPPDNENKILPFQYVLCAATSPAVKLHDETLTYLNQGQSYEIRMLDNRKLGELPEINGKLVKSIFRVVFHDRRLQYTEHQQLEGWRWNRPGDRILDIDIPMSVGIIDPRANPTQLNTVEFLWDPAKRTSVFIQVHCISTEFTMRKHGGEKGVPFRVQIDTFKENENGEYTEHLHSASCQIKVFKPKGADRKQKTDREKMEKRTPHEKEKYQPSYETTILTECSPWPEITYVNNSPSPGFNSSHSSFSLGEGNGSPNHQPEPPPPVTDNLLPTTTPQEAQQWLHRNRFSTFTRLFTNFSGADLLKLTRDDVIQICGPADGIRLFNALKGRMVRPRLTIYVCQESLQLREQQQQQQQQQQKHEDGDSNGTFFVYHAIYLEELTAVELTEKIAQLFSISPCQISQIYKQGPTGIHVLISDEMIQNFQEEACFILDTMKAETNDSYHIILK
